PubChem BioAssay AID662 (National Center for Advancing Translational Sciences (NCATS), 2007)
Where “and” joins values, the source holds several entries; their conditions need not be identical. Identical values can stand only once. The list shows a part of the results. Further columns of the screen follow, without active or inactive calls. The list favours compounds with an active or inconclusive main result. Potencies come from curve fits of mixed quality, noted in brackets.

Assay: Cell signaling CRE-BLA (Fsk stim)
Conditions: CHO CRE-bla reporter (cAMP response element driving beta-lactamase), forskolin EC10, beta-lactamase ratio; measured here: 460 nm blue channel
Outline: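 The 460nm/530nm emission ratio after CCF4 loading defined %Activity, from which AC50 values were obtained. CRE-bla CHO cells received compound dilution series together with an EC10 level of NKH 477 for 3 hours at 37 degrees Celsius.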
With `CCCCCCCCCCCC[N+](C)(C)CCOc1ccccc1` the AC50 was 31.6 µM [falling, single point]. In the case of `CC(C)(c1ccc(OC[C@@H]2CO2)cc1)c1ccc(OC[C@H]2CO2)cc1`, the AC50 was 25.1 µM [falling, single point]. With `COC(=O)CC1=C(C(=O)OC)C2(C(=O)Nc3c(C)cccc32)C(C#N)=C(N)O1` (stereo not drawn) the AC50 was 25.1 µM [falling, single point]. In the case of `COc1cccc2c1cc([N+](=O)[O-])c1c(C(=O)O)cc3c(c12)OCO3`, the AC50 was 31.6 µM [falling, single point]. For `CCc1c(C(=O)OC)ncc2[nH]c3cc(OC)c(OC)cc3c12`, the AC50 was 2.51 µM [rising, full curve]. In the case of `CCCNC(=O)c1c(N)n(CC2CCCO2)c2nc3ccccc3nc12` (stereo not drawn), the AC50 was 10 µM [rising, partial curve]. In the case of `Cc1noc(C)c1C(=O)N1CCC[C@@]2(CCN(CC(C)C)C2)C1`, the AC50 was 5.01 µM [falling, single point]. With `Cc1nc2ccc(Cl)cn2c1P(=S)(N1CCOCC1)N1CCOCC1` the AC50 was 0.794 µM [falling, full curve, poor fit]. In the case of `Cn1ccnc1P(=S)(c1nccn1C)c1nccn1C`, the AC50 was 0.126 µM [falling, single point]. With `C=CCn1c(O)c(C(C)=NCc2cccnc2)c(=O)[nH]c1=O` the AC50 was 0.631 µM [falling, partial curve]. In the case of `C#CCN(C)[C@H](C)Cc1ccccc1`, the AC50 was 31.6 µM [falling, single point]. With `CC1=CC(C)C(COC(N)=O)(COC(N)=O)C(C)C1` (stereo not drawn) the AC50 was 12.6 µM [rising, single point]. In the case of `O=C1CC(N2CCC(n3c(=O)[nH]c4ccccc43)CC2)C(=O)N1Cc1ccccc1` (stereo not drawn), the AC50 was 5.01 µM [falling, single point]. With `Cc1cccc(-n2c(C)nc3cc(C(=O)N4CCC5(CC4)OCCO5)ccc32)c1` the AC50 was 7.94 µM [rising, partial curve]. In the case of `N[C@H](Cc1ccc2oc3cc(=O)c4ccccc4c-3nc2c1)C(=O)O`, the AC50 was 0.794 µM [falling, single point]. With `CN1[C@@H]2CC[C@H]1CC(OC(c1ccc(F)cc1)c1ccc(F)cc1)C2` (stereo partly drawn) the AC50 was 31.6 µM [falling, partial curve, poor fit]. With `O=C(CN1CC=C(c2ccccc2)CC1)NC(=O)NCc1ccco1` the AC50 was 12.6 µM [rising, partial curve]. For `O=C(CCCN1CCC2(CC1)C(=O)N(Cc1cccc(F)c1)CN2c1ccccc1)c1ccc(F)cc1`, the AC50 was 0.316 µM [rising, full curve]. In the case of `CN1C(=O)N(C)C(=O)C(CCc2ccncc2)(Cc2ccc3c(c2)OCO3)C1=O`, the AC50 was 0.00794 µM [falling, full curve]. For `O=C1CN(C(=O)CN2CCCCC2)C(c2ccccc2)c2cc(Br)ccc2N1` (stereo not drawn), the AC50 was 7.94 µM [rising, partial curve]. For `COc1ccc(Nc2ncc(C(=O)N3CCC4(CC3)OCCO4)c3ccccc23)cc1`, the AC50 was 5.01 µM [falling, single point]. With `NC[C@H](CS(=O)(=O)O)c1ccc(Cl)cc1` the AC50 was 31.6 µM [falling, single point]. With `COC(=O)Nc1cccc(OC(=O)Nc2cccc(C)c2)c1` the AC50 was 1 µM [falling, full curve, poor fit]. In the case of `CCCC/C=C/[C@@H](NP(=O)(c1ccccc1)c1ccccc1)c1ccccc1OC`, the AC50 was 25.1 µM [falling, single point]. For `O=C(c1cc2c(s1)CCCC2)N1CCC2(CC1)OCCO2`, the AC50 was 10 µM [falling, partial curve]. In the case of `Oc1ccc2c3c1O[C@H]1c4oc5ccccc5c4C[C@]4(O)[C@H](C2)N(CC2CC2)CC[C@@]314`, the AC50 was 31.6 µM [falling, single point]. For `COC(=O)CSC1=NP(=S)(SCC(=O)OC)N2CCCC2=C1C#N` (stereo not drawn), the AC50 was 0.0631 µM [falling, full curve]. For `NCCc1c[nH]c2ccc(C(N)=O)cc12`, the AC50 was 31.6 µM [falling, partial curve, poor fit]. For `Oc1c(Cl)c(Cl)c(Cl)c(Cl)c1Cl` (tested in a mixture with another compound), the AC50 was 3.16 µM [rising, single point]. In the case of `CC(C)[C@]1(NC(=O)[C@H]2C=C3c4cccc5[nH]cc(c45)C[C@H]3N(C)C2)O[C@@]2(O)[C@H]3CCCN3C(=O)[C@H](Cc3ccccc3)N2C1=O`, the AC50 was 7.94 µM [rising, partial curve, poor fit]. With `C=C1[C@@H](O)C2C=CC[C@H](C)C(=O)[C@@](C)(O)C=C[C@@H](OC(C)=O)[C@@]23C(=O)N[C@H](Cc2ccccc2)[C@@H]3[C@@H]1C` (stereo partly drawn) the AC50 was 25.1 µM [rising, partial curve, poor fit]. With `N#C/C(=C\c1ccc(O)c(O)c1)C(N)=S` the AC50 was 25.1 µM [falling, partial curve] and 20 µM [falling, partial curve, poor fit]. In the case of `O=C1C2(Cl)C3(Cl)C4(Cl)C(Cl)(Cl)C5(Cl)C3(Cl)C1(Cl)C5(Cl)C24Cl` (stereo not drawn), the AC50 was 15.8 µM [falling, partial curve] and 12.6 µM [falling, partial curve, poor fit]. In the case of `CCN(CC)c1ccc(N=Cc2c(O)n(CCC3=CCCCC3)c(=O)[nH]c2=O)cc1`, the AC50 was 0.158 µM [rising, full curve]. With `N#C/C=C/C#N` the AC50 was 25.1 µM [falling, single point]. For `O=C(CNS(=O)(=O)c1ccc(Br)s1)N1CCC2(CC1)OCCO2`, the AC50 was 0.0126 µM [falling, full curve, poor fit]. In the case of `O=C(NC1(C(F)(F)F)Oc2ccccc2O1)N1CCC2(CC1)OCCO2`, the AC50 was 5.01 µM [falling, full curve, poor fit]. For `O=C1C2CCN(CC2)C1(CO)CO`, the AC50 was 25.1 µM [falling, partial curve, poor fit]. For `CCCCn1c(O)c(C(C)=Nc2ccc(OCC)cc2)c(=O)[nH]c1=O`, the AC50 was 15.8 µM [rising, single point]. With `CCCCn1c(O)c(C(C)=NC(Cc2c[nH]c3ccccc23)C(=O)OC)c(=O)[nH]c1=O` (stereo not drawn) the AC50 was 3.16 µM [falling, full curve]. With `O=C1C(Cl)=C(Cl)C(=O)C(Cl)=C1Cl` the AC50 was 25.1 µM [rising, single point]. With `CCOc1cc(-c2nc3c(C)cccn3c2NCC2CCCO2)ccc1O` (stereo not drawn) the AC50 was 12.6 µM [rising, partial curve]. With `CCOC(=O)c1c(N)n(Cc2ccc(OC)cc2)c2nc3ccccc3nc12` the AC50 was 10 µM [rising, partial curve]. In the case of `COc1cc2c(cc1OC)-c1c(OC)c(OC)cc3c1C(C2)N(C)CC3` (stereo not drawn), the AC50 was 10 µM [rising, partial curve]. In the case of `CC1(C)CC(=O)C(C2(O)C(=O)NC(=O)NC2=O)=C(O)C1`, the AC50 was 2.51 µM [falling, partial curve, poor fit]. For `CCC(=O)O[C@H]1CC[C@H]2[C@@H]3CCC4=CC(=O)CC[C@]4(C)[C@H]3CC[C@]12C`, the AC50 was 12.6 µM [rising, single point]. For `CC(=O)c1c(O)n(C2CCCCCC2)c(=O)[nH]c1=O`, the AC50 was 25.1 µM [falling, single point]. For `Cc1nc2cc(C(F)(F)F)ccc2n1C1CCN(Cc2nnnn2Cc2cccs2)CC1`, the AC50 was 15.8 µM [rising, partial curve]. With `COc1ccc(-n2c(=O)[nH]c3ccccc3c2=O)c(OC)c1` the AC50 was 20 µM [falling, single point]. For `CCOC(=O)C1=C(N)OC(C)=C(C(=O)OCCOC)C12C(=O)Nc1ccccc12` (stereo not drawn), the AC50 was 0.0794 µM [falling, full curve]. For `O=C1NC(=O)C2(Cc3ccccc3N3CCCC32)C(=O)N1c1ccccc1` (stereo not drawn), the AC50 was 0.251 µM [rising, single point]. With `COc1cc2c(cc1O)CCN[C@H]2C` the AC50 was 25.1 µM [rising, partial curve]. In the case of `O=C(O)CN1C(=O)CN=C(c2ccccn2)c2cc(Cl)ccc21`, the AC50 was 5.01 µM [rising, single point]. With `CC(C)OCCCNC(=O)c1c(N)n(Cc2cccs2)c2nc3ccccc3nc12` the AC50 was 10 µM [rising, partial curve]. With `Cc1nc2ncnn2c(C)c1CCC(=O)N1CCC2(CC1)OCCO2` the AC50 was 0.00398 µM [falling, full curve, poor fit]. With `CCC(C)NC(=O)c1c(N)n(CC2CCCO2)c2nc3ccccc3nc12` (stereo not drawn) the AC50 was 12.6 µM [rising, partial curve]. In the case of `COC(=O)C(C)Oc1cc(C)cc2oc(=O)c3c(c12)CCCC3` (stereo not drawn), the AC50 was 10 µM [rising, partial curve]. With `COc1ccc(CCNC(=O)c2c(N)n(CCN3CCOCC3)c3nc4ccccc4nc23)cc1` the AC50 was 5.01 µM [rising, partial curve]. With `COC(=O)C1C2c3ccccc3OC1(C)N=c1s/c(=C/c3cn(C)nc3C)c(=O)n12` (stereo not drawn) the AC50 was 25.1 µM [rising, single point]. For `Cn1c(C(=O)N2CCC(C(=O)N3CCC4(CC3)OCCO4)CC2)cc2sccc21`, the AC50 was 2.51 µM [rising, partial curve]. In the case of `CCn1cnc2c(Nc3cccc(Cl)c3)nc(N[C@@H]3CCCC[C@H]3N)nc21`, the AC50 was 10 µM [falling, partial curve]. In the case of `CC1CCCCN1CC(=O)c1ccc2cc[nH]c2c1` (stereo not drawn), the AC50 was 3.98 µM [falling, full curve]. For `CCC(=NCCC1=CCCCC1)c1c(O)[nH]c(=O)[nH]c1=O`, the AC50 was 12.6 µM [rising, partial curve].
